The source of these data is the supplement of paper PMC10398353.

“And” between values parts separate entries of the source, which are not always exact repeats. Equal entries are not always repeated. Structures can show the parent of a compound that is named as a salt. This is one part of the list. Single values of this set are uncertain.

The experiment has as its system Salmonella enterica serovar Typhimurium ST313 D23580. In words: normalized bacterial growth (OD600 20 h minus 0 h, interquartile-mean normalized) (fraction of plate interquartile mean); higher = more bacterial growth (less inhibition). Particulars: LPM (pH 5.8, low phosphate, low Mg2+), concentration: 10 µM, temperature: 37 °C.
`COCc1nc2c([nH]1)c(=O)n(C)c(=O)n2CC(C)C` [8-Methoxymethyl-3-isobutyl-1-methylxanthine] gave a normalized bacterial growth of 1.08.
In the case of `CC12CCc3occc3C1CCC13CC(=O)C(CCC12)C3` (stereo not given) it was 0.876; in that of `Cc1ccnc(NS(=O)(=O)c2ccc(N)cc2)n1`, 0.928.
In the case of `NC(=O)OCC(COC(N)=O)c1ccccc1` [Felbamate] it was 0.986; in that of `O=c1c(O)c(-c2ccccc2)oc2cccc(O)c12`, 1.15.
With `CCCCS(=N)(=O)CCC(N)C(=O)O` (racemic) ["DL-Buthionine-[S,R]-sulfoximine"], the normalized bacterial growth was 0.96.
Consider `N=C(N)NCc1cccc(I)c1` [Iobenguane sulfate], for which the normalized bacterial growth is 1.22.
The same measure for `NCCCC(O)(P(=O)(O)O)P(=O)(O)O`: 0.592; for `CNC[C@H](O)[C@@H](O)[C@H](O)[C@H](O)CO` [Meglumine]: 1.18.
In the case of `Nc1ccc(S(=O)(=O)Nc2cnc3ccccc3n2)cc1` it was 0.878; in that of `CCCCCCCCCC[Si](C)(C)CCC(=O)NC(Cc1ccc(C)cc1)c1ccccc1` (stereo not given) [Sandoz 58-035], 1.12; in that of `COc1cccc(-c2cc(=O)c3cc(OC)ccc3o2)c1`, 0.38.
The same measure for `O=c1[nH]c2cc(C(F)(F)F)ccc2n1-c1cc(C(F)(F)F)ccc1O`: 1.31; for `COc1cc(C2Oc3cc([C@H]4Oc5cc(O)cc(O)c5C(=O)[C@@H]4O)ccc3OC2CO)ccc1O` (stereo not given in full): 1.01 and 0.782.
`O=c1cc(-c2ccccc2)oc2cc(O)c(O)c(O)c12` had a normalized bacterial growth of 0.76.
In the case of `N[C@@H](CCCC(=O)O)C(=O)O` [L-2-aminoadipic acid] it was 1.38; in that of `CN(C)CCn1nnnc1SCC1=C(C(=O)O)N2C(=O)[C@@H](NC(=O)Cc3csc(N)n3)[C@H]2SC1` [Cefotiam hydrochloride], 0.0245.
On to `CC(=O)N[C@@H](CS)C(=O)O` [N-Acetyl-L-Cysteine], for which the normalized bacterial growth is 1.08.
As for `O=c1cc(-c2ccccc2)[nH]c2nc(Cl)ccc12` ["7-Chloro-4-hydroxy-2-phenyl-1,8-naphthyridine"], the normalized bacterial growth came out at 1.2.
In turn, `O=c1[nH]c(=O)c2nc3ccccc3nc2[nH]1` [Alloxazine] showed a normalized bacterial growth of 0.844.
The same measure for `N#C/C(=C\c1ccc(O)c(O)c1)C(=O)NCCc1ccccc1` [Tyrphostin AG 698]: 1.13; for `CC(=O)O[C@H]1C[C@@]2(C)[C@@H](C[C@@H](O)[C@H]3[C@@]4(C)CC[C@@H](O)[C@@H](C)[C@@H]4CC[C@@]32C)/C1=C(\CCC=C(C)C)C(=O)O`: 0.555.
In the case of `CC(=O)O[C@H]1C[C@@]2(C)[C@@H](C[C@@H](O)[C@H]3[C@@]4(C)CC[C@@H](O)[C@@H](C)[C@@H]4CC[C@@]32C)/C1=C(\CCC=C(C)C)C(=O)O` [Fusidic acid sodium salt] it was 0.54.
In the case of `CC(=O)O[C@H]1C[C@@]2(C)[C@@H](C[C@@H](O)[C@H]3[C@@]4(C)CC[C@@H](O)[C@@H](C)[C@@H]4CC[C@@]32C)/C1=C(\CCC=C(C)C)C(=O)O` [Fusidic acid sodium] it was 0.535.
Compound `CC(C)C[C@H](N)C(=O)N[C@@H](C)C(=O)O` had a normalized bacterial growth of 0.946.
In the case of `CCOC(=O)c1c(C)cc(O)c(C=O)c1O` it was 0.904; in that of `CCN(CC)CCOC(=O)c1ccc(N)cc1` [Procaine hydrochloride], 1.07; in that of `Cn1ccnc1` [1-Methylimidazole], 1.14.
Compound `CC[C@H](C)C(=O)O[C@H]1C[C@@H](C)C=C2C=C[C@H](C)[C@H](CC[C@@H]3C[C@@H](O)CC(=O)O3)[C@H]21` came in with a normalized bacterial growth of 0.78.
In the case of `Cc1c(C)c2c(c(C)c1O)CCC(C)(C(=O)O)O2` (stereo not given) [Trolox] it was 0.698.
